Results from patent US10927348B2, “Human adipose tissue white and ‘brown-on-white’ progenitors for reconstructive and metabolic therapies” (University of Massachusetts, priority 2014, dated 2021).
“Also recorded” adds a separate entry of the source. At least one structure is not confirmed: it was looked up by name or label, or the drawing left a doubt.

Tests used:
Type in all cases: cell-based, human
differentiated HACAPS [1] = test: RT-PCR gene expression in differentiated HACAPS exposed to forskolin or isoproterenol
[2] = tested on: UCP1 in differentiated HACAPS; test: Immunofluorescence and microscopy of differentiated cells exposed to forskolin
[3] = tested on: adipocytes differentiated from HACAPS; test: Oxygen consumption and mitochondrial parameters (Seahorse XF24 analyzer)
differentiated HACAPS [4] = test: Affymetrix global gene expression before and after forskolin-induced browning; details: differentiated cells without or with forskolin for 7 days
[5] = forskolin for 1 week vs vehicle

Compound: C=C[C@@]1(C)CC(=O)[C@]2(O)[C@@]3(C)[C@@H](O)CCC(C)(C)[C@@H]3[C@H](O)[C@H](OC(C)=O)[C@@]2(C)O1 [forskolin]
- FABP4 levels (differentiated HACAPS [1]; forskolin): increased
- GLUT4 levels (differentiated HACAPS [1]; forskolin): increased
- expression of adiponectin (differentiated HACAPS [1]; forskolin): increased significantly
- expression of leptin (differentiated HACAPS [1]; forskolin): decreased
- perilipin-1 mRNA (differentiated HACAPS [1]; forskolin): large increase
- CIDE-A mRNA expression (differentiated HACAPS [1]; forskolin 6 h to 2 weeks): induced; also recorded: very large increase
- deiodinase-2 (DIO2) mRNA expression (differentiated HACAPS [1]; forskolin 6 h to 2 weeks): induced; also recorded: very large increase
- UCP1 mRNA expression (differentiated HACAPS [1]; forskolin for 6 h to 2 weeks after adipogenic differentiation): increased rapidly; also recorded: very large increase
- IL-33 mRNA levels (differentiated HACAPS [1]; forskolin for 7 days): increased
- PCSK1 mRNA levels (differentiated HACAPS [1]; forskolin for 7 days): increased
- PENK mRNA levels (differentiated HACAPS [1]; forskolin for 7 days): increased
- lipid droplet morphology ([2]; cells exposed to forskolin for 2 weeks vs vehicle): remodeling of large lipid droplets into numerous small lipid droplets
- UCP1 protein (immunofluorescence staining) ([2]; differentiated cells exposed to forskolin): increase in protein; also recorded: marked accumulation of UCP1 protein
- ATP-production linked oxygen consumption [3, 5]: decreased
- FCCP-uncoupled oxygen consumption [3, 5]: enhanced
- basal oxygen consumption [3, 5]: enhanced
- proton leakage [3, 5]: enhanced
- thermogenic oxygen consumption ([3]; forskolin-exposed differentiated HACAPS): induction of thermogenic oxygen consumption
- IL-33 rank among induced genes (global gene expression) (differentiated HACAPS [4]): amongst the 20 most highly induced genes
- PCSK1 rank among induced genes (global gene expression) (differentiated HACAPS [4]): amongst the 20 most highly induced genes
- PENK rank among induced genes (global gene expression) (differentiated HACAPS [4]): amongst the 20 most highly induced genes
